This assay has as its target GFP-NSP8 (SARS-CoV-2 nonstructural protein 8) (SARS-CoV-2) (UniProt P0DTD1). The experiment in a line: co-IP.

Results are given in words; binding and its absence hold for the method and conditions named. Binding seen in cells or lysates may run through a third protein. Some binding calls cover weakened binding; strength is not graded here. Tags and fused reporters may be left off the sequences shown.

B1: full-length Flag-MDA5 (melanoma differentiation-associated gene-5) (protein, UniProt Q9BYX4 1-1025)
chain: MSNGYSTDENFRYLISCFRARVKMYIQVEPVLDYLTFLPAEVKEQIQRTVATSGNMQAVELLLSTLEKGVWHLGWTREFVEALRRTGSPLAARYMNPELTDLPSPSFENAHDEYLQLLNLLQPTLVDKLLVRDVLDKCMEEELLTIEDRNRIAAAENNGNESGVRELLKRIVQKENWFSAFLNVLRQTGNNELVQELTGSDCSESNAEIENLSQVDGPQVEEQLLSTTVQPNLEKEVWGMENNSSESSFADSSVVSESDTSLAEGSVSCLDESLGHNSNMGSDSGTMGSDSDEENVAARASPEPELQLRPYQMEVAQPALEGKNIIICLPTGSGKTRVAVYIAKDHLDKKKKASEPGKVIVLVNKVLLVEQLFRKEFQPFLKKWYRVIGLSGDTQLKISFPEVVKSCDIIISTAQILENSLLNLENGEDAGVQLSDFSLIIIDECHHTNKEAVYNNIMRHYLMQKLKNNRLKKENKPVIPLPQILGLTASPGVGGATKQAKAEEHILKLCANLDAFTIKTVKENLDQLKNQIQEPCKKFAIADATREDPFKEKLLEIMTRIQTYCQMSPMSDFGTQPYEQWAIQMEKKAAKEGNRKERVCAEHLRKYNEALQINDTIRMIDAYTHLETFYNEEKDKKFAVIEDDSDEGGDDEYCDGDEDEDDLKKPLKLDETDRFLMTLFFENNKMLKRLAENPEYENEKLTKLRNTIMEQYTRTEESARGIIFTKTRQSAYALSQWITENEKFAEVGVKAHHLIGAGHSSEFKPMTQNEQKEVISKFRTGKINLLIATTVAEEGLDIKECNIVIRYGLVTNEIAMVQARGRARADESTYVLVAHSGSGVIEHETVNDFREKMMYKAIHCVQNMKPEEYAHKILELQMQSIMEKKMKTKRNIAKHYKNNPSLITFLCKNCSVLACSGEDIHVIEKMHHVNMTPEFKELYIVRENKALQKKCADYQINGEIICKCGQAWGTMMVHKGLDLPCLKIRNFVVVFKNNSTKKQYKKWVELPITFPNLDYSECCLFSDED
Take B1: the binding entry is “binds”.

(Values after article doi:10.1101/2020.08.12.247767.)
